{"source": "PubChem BioAssay AID1259425 (University of Nebraska Medical Center, 2018)", "aim": "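Find knockdowns that reproduce the gene expression pattern seen when KSR1 is lost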 (primary screen)", "system": "HCT116 human colon cancer cells", "reagent": "siRNA pool against human genes, 50 nM siRNA", "measurement": "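mRNA of six signature genes measured together by branched-DNA assay after 50 nM siRNA pool, blank removed, divided by geometric mean of two housekeeping genes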", "scale": "BNIP3L mRNA: higher = more BNIP3L transcript after knockdown; NDRG1 mRNA: higher = more NDRG1 transcript after knockdown", "note": "Shown is a random part of about 14,000 deposited reagents. Not all columns of the deposit are shown. The record does not give: the time to read-out."}
{"target gene": "MOGAT2 (GeneID 80168)", "BNIP3L mRNA, set 1": 0.0827, "NDRG1 mRNA, set 1": 0.164}
{"target gene": "ME3 (GeneID 10873)", "BNIP3L mRNA, set 1": 0.0737, "NDRG1 mRNA, set 1": 0.163}
{"target gene": "CDK2AP2 (GeneID 10263)", "BNIP3L mRNA, set 1": 0.241, "NDRG1 mRNA, set 1": 0.583}
{"target gene": "CYP26B1 (GeneID 56603)", "BNIP3L mRNA, set 1": 0.0724, "NDRG1 mRNA, set 1": 0.286}
{"target gene": "ICAM1 (GeneID 3383)", "BNIP3L mRNA, set 1": 0.222, "NDRG1 mRNA, set 1": 0.552}
{"target gene": "HEBP1 (GeneID 50865)", "BNIP3L mRNA, set 1": 0.103, "NDRG1 mRNA, set 1": 0.596}
{"target gene": "PHACTR2 (GeneID 9749)", "BNIP3L mRNA, set 1": 0.102, "NDRG1 mRNA, set 1": 0.218}
{"target gene": "CD34 (GeneID 947)", "BNIP3L mRNA, set 1": 0.0479, "NDRG1 mRNA, set 1": 0.0136}
{"target gene": "EIF4A1 (GeneID 1973)", "BNIP3L mRNA, set 1": 0.0662, "NDRG1 mRNA, set 1": 0.0964}
{"target gene": "RFTN1 (GeneID 23180)", "BNIP3L mRNA, set 1": 0.0378, "NDRG1 mRNA, set 1": 0.485}
{"target gene": "ADORA3 (GeneID 140)", "BNIP3L mRNA, set 1": 0.0826, "NDRG1 mRNA, set 1": 0.14}
{"target gene": "PSMB1 (GeneID 5689)", "BNIP3L mRNA, set 1": 0.508, "NDRG1 mRNA, set 1": 1.02}
{"target gene": "YBEY (GeneID 54059)", "BNIP3L mRNA, set 1": 0.886, "NDRG1 mRNA, set 1": 1.76}
{"target gene": "TP53RK (GeneID 112858)", "BNIP3L mRNA, set 1": 0.0838, "NDRG1 mRNA, set 1": 0.1}
{"target gene": "HK3 (GeneID 3101)", "BNIP3L mRNA, set 1": 0.0729, "NDRG1 mRNA, set 1": 0.0806}
{"target gene": "RUBCNL (GeneID 80183)", "BNIP3L mRNA, set 1": 0.188, "NDRG1 mRNA, set 1": 0.349}
{"target gene": "BSDC1 (GeneID 55108)", "BNIP3L mRNA, set 1": 0.122, "NDRG1 mRNA, set 1": 0.501}
{"target gene": "MT-CO2 (GeneID 4513)", "BNIP3L mRNA, set 1": 0.0866, "NDRG1 mRNA, set 1": 0.116}
{"target gene": "SLC8B1 (GeneID 80024)", "BNIP3L mRNA, set 1": 0.128, "NDRG1 mRNA, set 1": 0.166}
{"target gene": "MED22 (GeneID 6837)", "BNIP3L mRNA, set 1": 0.282, "NDRG1 mRNA, set 1": 0.308}
{"target gene": "UBR2 (GeneID 23304)", "BNIP3L mRNA, set 1": 0.0847, "NDRG1 mRNA, set 1": 0.126}
{"target gene": "NAMPT (GeneID 10135)", "BNIP3L mRNA, set 1": 0.0748, "NDRG1 mRNA, set 1": 0.191}
{"target gene": "SPHKAP (GeneID 80309)", "BNIP3L mRNA, set 1": 0.12, "NDRG1 mRNA, set 1": 0.286}
{"target gene": "PPFIA2 (GeneID 8499)", "BNIP3L mRNA, set 1": 0.0619, "NDRG1 mRNA, set 1": 0.257}
{"target gene": "PEX5 (GeneID 5830)", "BNIP3L mRNA, set 1": 0.0839, "NDRG1 mRNA, set 1": 0.255}
{"target gene": "NIF3L1 (GeneID 60491)", "BNIP3L mRNA, set 1": 0.111, "NDRG1 mRNA, set 1": 0.275}
{"target gene": "IGF2 (GeneID 3481)", "BNIP3L mRNA, set 1": 0.0437, "NDRG1 mRNA, set 1": 0.0833}
{"target gene": "USP8 (GeneID 9101)", "BNIP3L mRNA, set 1": 0.0828, "NDRG1 mRNA, set 1": 0.114}

Only “NDRG1 mRNA, set 1” (4 entries from above):
NAMPT (GeneID 10135)	0.191
SPHKAP (GeneID 80309)	0.286
PPFIA2 (GeneID 8499)	0.257
PEX5 (GeneID 5830)	0.255
